These are yes or no findings as the source states them, for the method shown. Binding seen in cells or lysates may run through a third protein. For part of these data: A result given as binding can be weak or reduced; the word gives no strength. Where a sequence is shown, tags or fusion partners need not be part of it.
T1: HA-tagged RNF125 (UniProt Q96EQ8)
T1 sequence: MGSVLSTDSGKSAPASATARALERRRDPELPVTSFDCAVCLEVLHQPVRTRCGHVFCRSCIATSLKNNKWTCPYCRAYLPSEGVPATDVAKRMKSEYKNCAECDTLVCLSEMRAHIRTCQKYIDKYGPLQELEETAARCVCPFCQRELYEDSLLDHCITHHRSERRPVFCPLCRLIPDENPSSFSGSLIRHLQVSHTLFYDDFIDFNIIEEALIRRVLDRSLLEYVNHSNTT

T2: Myc-tagged IRF9 (UniProt Q00978)
T2 sequence: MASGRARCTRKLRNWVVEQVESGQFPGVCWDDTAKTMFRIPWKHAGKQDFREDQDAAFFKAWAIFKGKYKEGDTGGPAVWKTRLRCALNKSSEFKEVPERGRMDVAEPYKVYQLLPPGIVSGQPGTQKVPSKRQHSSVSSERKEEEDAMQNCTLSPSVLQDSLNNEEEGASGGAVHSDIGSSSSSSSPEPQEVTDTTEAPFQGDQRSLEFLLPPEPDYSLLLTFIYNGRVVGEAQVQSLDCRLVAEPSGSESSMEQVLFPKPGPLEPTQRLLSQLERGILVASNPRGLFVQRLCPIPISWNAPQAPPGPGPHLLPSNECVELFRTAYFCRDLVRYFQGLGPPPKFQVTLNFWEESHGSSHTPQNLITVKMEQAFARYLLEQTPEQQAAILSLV

B1: HA-tagged RNF125 (protein, UniProt Q96EQ8 1-232)
chain: T1 sequence

Experiments:
Assay in all cases: co-IP
HA-tagged RNF125 = molecular target: T1, HA-tagged RNF125
Myc-tagged IRF9 = molecular target: T2, Myc-tagged IRF9
[1] = molecular target: Flag-tagged Senecavirus A (SVA) 3D protein (Senecavirus A)

Row | Molecule | binding (HA-tagged RNF125) | binding (Myc-tagged IRF9) | binding [1]
1 | Flag-tagged Senecavirus A (SVA) 3D protein | binds | no binding | –
2 | B1 | – | – | binds
